Laboratory results from publication PMC10290082.
No constants are given. Whether binding was seen depends on the method and setting. In cells and extracts the contact can be indirect. Some entries that bind do so weakly or less than the wild type.

Sequences of proteins named here, by UniProt entry; tags and fusion partners are left off.
UniProt Q00987: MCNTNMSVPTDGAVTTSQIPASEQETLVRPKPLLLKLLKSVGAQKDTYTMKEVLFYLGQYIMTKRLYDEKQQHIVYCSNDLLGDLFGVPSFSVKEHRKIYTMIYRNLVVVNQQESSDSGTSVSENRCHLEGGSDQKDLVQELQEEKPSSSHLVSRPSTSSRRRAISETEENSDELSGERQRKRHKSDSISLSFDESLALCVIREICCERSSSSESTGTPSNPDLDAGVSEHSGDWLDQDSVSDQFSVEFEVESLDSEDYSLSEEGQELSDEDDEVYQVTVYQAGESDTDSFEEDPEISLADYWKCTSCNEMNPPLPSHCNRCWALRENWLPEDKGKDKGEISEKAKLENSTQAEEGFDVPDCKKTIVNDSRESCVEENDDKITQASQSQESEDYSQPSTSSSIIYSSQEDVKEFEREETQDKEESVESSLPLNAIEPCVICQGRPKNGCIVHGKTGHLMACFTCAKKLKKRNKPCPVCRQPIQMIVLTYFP

Target: T1, pDIQ peptide
T1 sequence (peptide): ETFEHWWSQLLSGGC
Test: pull-down; lysates of HeLa cells expressing T11β1-MDM2, Tau-HAT10 and T10HA-P53, 30 min at room temperature with pDIQ-conjugated beads; capture of MDM2 by the peptide; only the target purified

T11β1-MDM2 (from UniProt Q00987 1-491)
binding: binds
